The results in this text go back to doi:10.1101/2023.04.27.538571.

The target in experiment [1] is T1, PATL2-nYFP (PATELLIN 2) (Arabidopsis thaliana) (UniProt Q56ZI2).
T1 sequence: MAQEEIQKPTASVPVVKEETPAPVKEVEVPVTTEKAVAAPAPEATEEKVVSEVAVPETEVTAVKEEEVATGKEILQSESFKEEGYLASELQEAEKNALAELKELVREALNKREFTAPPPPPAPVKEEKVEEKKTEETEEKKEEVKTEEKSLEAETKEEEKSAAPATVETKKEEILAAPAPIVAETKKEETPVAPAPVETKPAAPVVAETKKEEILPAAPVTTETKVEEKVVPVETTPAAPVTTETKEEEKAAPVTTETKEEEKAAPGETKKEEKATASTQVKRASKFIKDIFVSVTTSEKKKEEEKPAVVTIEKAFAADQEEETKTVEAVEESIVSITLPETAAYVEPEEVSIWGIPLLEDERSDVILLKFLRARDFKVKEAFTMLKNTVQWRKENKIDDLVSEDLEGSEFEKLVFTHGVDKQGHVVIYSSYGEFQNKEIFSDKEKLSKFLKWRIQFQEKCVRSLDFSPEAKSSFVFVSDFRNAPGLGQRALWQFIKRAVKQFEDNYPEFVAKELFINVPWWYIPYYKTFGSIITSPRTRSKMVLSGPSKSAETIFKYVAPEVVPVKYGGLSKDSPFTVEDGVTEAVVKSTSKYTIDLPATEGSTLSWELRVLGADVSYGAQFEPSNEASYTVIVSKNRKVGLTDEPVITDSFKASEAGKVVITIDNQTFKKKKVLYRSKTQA
The experiment is described as follows: split reporter.

The target in experiment [2] is T2, SNX1-nYFP (SORTING NEXIN 1) (Arabidopsis thaliana) (UniProt Q9FG38).
T2 sequence: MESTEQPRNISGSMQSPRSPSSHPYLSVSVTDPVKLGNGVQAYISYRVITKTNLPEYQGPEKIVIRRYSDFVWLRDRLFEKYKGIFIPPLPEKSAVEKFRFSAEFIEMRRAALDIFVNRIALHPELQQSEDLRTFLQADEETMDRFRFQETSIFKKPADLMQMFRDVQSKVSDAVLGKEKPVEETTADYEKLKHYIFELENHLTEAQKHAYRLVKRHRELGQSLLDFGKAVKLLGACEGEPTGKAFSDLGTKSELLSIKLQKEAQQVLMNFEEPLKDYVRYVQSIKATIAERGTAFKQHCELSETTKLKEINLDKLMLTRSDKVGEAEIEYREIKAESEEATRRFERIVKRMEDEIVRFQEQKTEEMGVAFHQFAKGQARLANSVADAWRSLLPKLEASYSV
The experiment is described as follows: split reporter.

The target of experiment [3] is T3, nYFP-IRT1vr (Arabidopsis thaliana) (UniProt Q38856).
T3 sequence: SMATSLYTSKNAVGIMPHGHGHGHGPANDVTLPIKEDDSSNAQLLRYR
Nature of the experiment: split reporter.

For experiment [4], the target named is T4, IRT1vr-mCherry (Arabidopsis thaliana) (UniProt Q38856).
T4 sequence: T3 sequence
Nature of the experiment: FRET or BRET. A general note: BRET reads energy transfer from a luciferase to a nearby fluorophore.

Positions count from the first letter of the chain named. Numbers in names are those of the source. These are yes or no findings as the source states them, for the method shown. In cells and extracts the contact can be indirect. Some entries that bind do so weakly or less than the wild type. Tags and fused reporters may be left off the sequences shown.

B1: cYFP-TTN5^Q70L (protein, UniProt Q9ZPX1 1-185)
chain: MGLLSIIRKIKKKEKEMRILMVGLDNSGKTTIVLKINGEDTSVISPTLGFNIKTIIYQKYTLNIWDVGGLKTIRSYWRNYFEQTDGLVWVVDSSDLRRLDDCKMELDNLLKEERLAGSSLLILANKQDIQGALTPDEIGKVLNLESMDKSRHWKIVGCSAYTGEGLLEGFDWLVQDIASRIYMLD
For the molecule B1, the binding entry in experiment [1] was “no binding”; in experiment [2] it was “binds”; in experiment [3], “binds”.

B2: cYFP-TTN5^T30N (protein, UniProt Q9ZPX1 1-185)
chain: B1 chain with T30N, L70Q
On to B2, for which the results for the binding result in experiment [1], in experiment [2] and in experiment [3] were “no binding”, “no binding” and “binds”, respectively.

B3: GFP-TTN5^Q70L (protein, UniProt Q9ZPX1 1-185)
chain: B1 chain
For the molecule B3, in experiment [4], the binding entry is given as “binds”.

B4: GFP-TTN5^T30N (protein, UniProt Q9ZPX1 1-185)
chain: B1 chain with T30N, L70Q
As to B4, the binding result in experiment [4] is “binds”.
